Experimental data published in PMC11092803, “Heme allocation in eukaryotic cells relies on mitochondrial heme export through FLVCR1b to cytosolic GAPDH” (Research Square, 2024).
Results are given in words; binding and its absence hold for the method and conditions named. In cells and extracts the contact can be indirect. Some results given as binding are weak or reduced against the parent protein; the word gives no strength.

The chains behind the UniProt entries cited, without tags or fusion partners. Where a name states a change or a piece, a line headed by the entry shows the natural chain unless it says otherwise.
UniProt P04406: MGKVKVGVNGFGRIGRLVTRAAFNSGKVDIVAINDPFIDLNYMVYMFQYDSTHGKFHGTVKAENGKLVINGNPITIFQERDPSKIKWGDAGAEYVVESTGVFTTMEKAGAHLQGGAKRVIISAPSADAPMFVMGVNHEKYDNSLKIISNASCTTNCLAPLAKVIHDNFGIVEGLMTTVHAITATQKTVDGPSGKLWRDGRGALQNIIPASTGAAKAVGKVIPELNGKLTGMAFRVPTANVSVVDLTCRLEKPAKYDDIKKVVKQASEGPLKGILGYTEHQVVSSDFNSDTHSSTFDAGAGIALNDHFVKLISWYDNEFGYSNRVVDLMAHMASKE

Assays:
[1] = molecular target: T1, Feline Leukemia Virus subgroup C Receptor 1b (FLVCR1b) (human (endogenous in HEK293T)) (UniProt Q9Y5Y0); test: co-IP; solubilised (1% Triton X-100) mitochondria of HEK293T cells, 0.5 mg protein, anti-FLVCR antibody and Protein G agarose, Western blot; at times after δ-ALA/Fe
T1 sequence: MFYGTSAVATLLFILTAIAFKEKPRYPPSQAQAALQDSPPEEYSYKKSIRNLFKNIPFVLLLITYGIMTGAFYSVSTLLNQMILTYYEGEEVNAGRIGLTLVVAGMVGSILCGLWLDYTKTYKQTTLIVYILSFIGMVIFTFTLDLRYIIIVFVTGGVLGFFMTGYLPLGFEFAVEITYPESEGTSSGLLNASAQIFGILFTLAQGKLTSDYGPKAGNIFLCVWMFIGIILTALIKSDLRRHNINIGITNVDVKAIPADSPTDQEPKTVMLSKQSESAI

[2] = molecular target: T1, Feline Leukemia Virus subgroup C Receptor 1b (FLVCR1b) (human (endogenous in HEK293T)); test: proximity ligation; Duolink PLA on HEK293T cells transfected with HA-tagged GAPDH wild type or H53A, antibodies to HA and FLVCR1; resting and at times after δ-ALA/Fe; background = one primary antibody alone

Row | Substance | binding [1] | binding [2]
1 | H53A point mutant variant of HA-hGAPDH (from UniProt P04406 1-335) | binds | 
2 | HA-tagged human GAPDH reporter protein TC-hGAPDH (wild type) (from UniProt P04406 1-335) | binds | binds
3 | glyceraldehyde phosphate dehydrogenase (GAPDH) (from UniProt P04406 1-335) | binds | 
